{"source": "patent US4278612A", "about": "“2-Chloro-2-alkyl substituted peroxyesters” (priority 1979, dated 1981)", "assay": "Hot block gel tests with polyester resin", "details": "1% wt peroxide, block 180 ± 1° F. (82° C.)"}
{"smiles": "CCCC(C)(Cl)C(=O)OOC(C)(C)C", "note": "(centres unmarked) [TBPCMPe, t-Butyl peroxy 2-chloro-2-methyl pentanoate]", "values": [{"measurement": "Peak Temp", "setting": "SET 1", "value": 254, "unit": "°F."}]}
{"smiles": "CCC(C)(C)OOC(=O)C(C)(C)Cl", "note": "[TAPCMPr, t-Amyl peroxy 2-chloro-2-methyl propionate]", "values": [{"measurement": "Peak Temp", "setting": "SET 1", "value": 262, "unit": "°F."}]}
{"smiles": "CCC(C)(C)OOC(=O)C(Cl)(CC)CC", "note": "[TAPCEB, t-Amyl peroxy 2-chloro-2-ethyl butyrate]", "values": [{"measurement": "Peak Temp", "setting": "SET 2", "value": 264, "unit": "°F."}]}
{"smiles": "O=C(OOC(=O)c1ccccc1)c1ccccc1", "note": "[BZP, Benzoyl Peroxide, reference compound]", "values": [{"measurement": "Peak Temp", "setting": "SET 1", "value": 248, "unit": "°F."}, {"measurement": "Peak Temp", "setting": "SET 2", "value": 251, "unit": "°F."}, {"measurement": "Peak Temp", "setting": "SET 3", "value": 252, "unit": "°F."}]}
{"smiles": "CC(C)(C)OOC(=O)C(C)(C)Cl", "note": "[TBPCMPr, t-Butyl peroxy 2-chloro-2-methyl propionate, reference compound]", "values": [{"measurement": "Peak Temp", "setting": "SET 1", "value": 259, "unit": "°F."}, {"measurement": "Peak Temp", "setting": "SET 2", "value": 268, "unit": "°F."}]}
{"smiles": "CC(C)(C#CC(C)(C)OOC(=O)C(C)(C)Cl)OOC(=O)C(C)(C)Cl", "note": "[DM--DCMPrH, 2,5-dimethyl-2,5-di(2-chloro-2-methylpropionylperoxy) hexyne-3]", "values": [{"measurement": "Peak Temp", "setting": "SET 3", "value": 255, "unit": "°F."}]}
{"smiles": "CCCC(C)(Cl)C(=O)OOC(C)(C)CCC(C)(C)OOC(=O)C(C)(Cl)CCC", "note": "(centres unmarked) [DM--DCMPeH, 2,5-Dimethyl-2,5-di(2-chloro-2-methylpentanoylperoxy) hexane]", "values": [{"measurement": "Peak Temp", "setting": "SET 3", "value": 263, "unit": "°F."}]}
{"smiles": "CCC(Cl)(CC)C(=O)OOC(C)(C)C", "note": "[TBPCEB, t-Butyl peroxy 2-chloro-2-ethyl butyrate]", "values": [{"measurement": "Peak Temp", "setting": "SET 2", "value": 266, "unit": "°F."}]}
{"smiles": "CCCCC(Cl)(CC)C(=O)OOC(C)(C)C", "note": "(centres unmarked) [TBPCEH, t-Butyl peroxy 2-chloro-2-ethyl hexanoate]", "values": [{"measurement": "Peak Temp", "setting": "SET 1", "value": 260, "unit": "°F."}, {"measurement": "Peak Temp", "setting": "SET 2", "value": 269, "unit": "°F."}, {"measurement": "Peak Temp", "setting": "SET 3", "value": 264, "unit": "°F."}]}
